Test results from US8099262B2, “Estimation of clinical cut-offs” (priority 2004, dated 2012).
For at least one compound, name, drawing or mass did not settle the structure.

Experiments:
HIV [1] = assay type: in vivo; conditions: definition 2, linear regression model
Text: In a preferred embodiment of the linear regression model, more factors are included in order to obtain a more refined prediction of viral load response. These factors include for example a sensitivity score per drug class in addition to the overall sensitivity score of the background treatment (cPSS), previous exposure to the drug (naïve (Yes/No), naïve to PIs, naïve to NRTI's, etc. . . . ). Furthermore, in the preferred embodiment, the fold change is transformed before inserting the figures into the model. The transformation to the fold change comprises a power-transformation ranging from FC^−3 to FC^1. In addition, a quadratic term in cPSS is preferably added.
The NRTI[naïve] value represents whether the patient is naïve to nucleoside RT inhibitors. If yes, value=1, if no, value=0. The PSS[NRTI} represents the phenotypic sensitivity score for NRTIs, i.e the number of active NRTIs in the background regimen for the patient.
Stage 3: Determine Fold change equivalent to VL drop at 20% and 80% loss of activity by inserting values for VL drop into the above equation and calculating FC. […]

HIV [2] = assay type: in vivo; conditions: preliminary linear regression analysis, definition 2; brackets: 90% confidence limits by bootstrapping
Text: Databases of studies for patients with tenofovir containing regimens and consisting of patient baseline demographic characteristics, clinical outcome results with viral load and resistance data (Fold change), were retrieved and remapped according to a common structure allowing a meta-analysis. […]
In the linear regression model, the proposed equation was the following: LogVL dropi=β0+β1*Baseline Log(V1)i+β2*PSSi+β3*(1/FC)i+ξi where i represented the patient, β0 the intercept, β1, β2 and β3 coefficients indicated the increase in log viral load drop per unit increase of respectively the baseline log VL, the number of sensitive drugs in the background regimen and the inverse of the baseline fold change. ξi was a random error term indicating the deviation of the patient from the value predicted by the model. Interactions between all the factors were evaluated and other baseline characteristics, i.e treatment history, were added if relevant. […]

SMILES	Modelled Lower Cutoff & 95% Confidence Interval (HIV [1])	Modelled Upper Cutoff & 95% Confidence Interval (HIV [1])	VIROLOGIC RESPONSE Baseline FC for 20% REDUCTION of response (lower cutoff) (HIV [2])
Cc1ccnc2c1NC(=O)c1cccnc1N2C1CC1 [NVP, neviripine]	1.5 [1.40-16.74]	3.2 [2.22-63.06]	–
CC(C)OC(=O)OCOP(=O)(CO[C@H](C)Cn1cnc2c(N)ncnc21)OCOC(=O)OC(C)C.O=C(O)/C=C/C(=O)O [TDF]	1.0 [0.97-1.32]	2.0 [1.51-2.95]	1.2 [1.1-1.5]
